According to PubChem BioAssay AID687031 (Broad Institute, 2013):
The whole screen tested about 1,400 compounds, of which about 50 (4%) were called active.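 Rule for the calls: active = fitted curve reaches 30% CPE protection at or below the top valid dose, with every test run called active; inconclusive = test runs disagree, some active and some not; inactive = every test run inactive, including effects in the wrong direction.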 The list shows a part of the results. Measured potencies and affinities stand elsewhere.

assay: Dengue virus 2 cytopathic effect protection, dose response, BHK-21 cells, ATP luminescence, cherry-pick (AID 687031); conditions: BHK-21 DENV2 CPE protection, 5 d; at 19.5 µM (top of the series) unless noted;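 note: 0% = infected DMSO wells and 100% = uninfected cell wells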

CPE protection (higher = active), inactive:
O=C1c2ccccc2[C@@H]2C[C@@H](O)[C@H](Nc3cccc4ccccc34)CCN12 -10.2%
CCC(C)[C@H]1CNCCN1CCc1cc(C(F)(F)F)cc(C(F)(F)F)c1 (some centres undefined) 25.1%
Cn1cc([C@]2(O)C(=O)Nc3ccccc32)c2ccccc21 -11.7%
NC[C@H](Cc1ccccc1)NCCCCC1CCCCC1 -18.6%
COc1ccc(C(=O)N2CCCCC2c2cc(C(=O)NCc3cccnc3)no2)cc1 (centres undefined) -19.2%
CN1CCN(C(=O)c2cc3sc4ccccc4c3s2)CC1 0.745%
O=C1CCC(C(=O)OCC(=O)Nc2ccc(SC(F)F)cc2)=NN1 24%
CCc1cccc(-n2c(C)cc(O)cc2=O)c1 -5.28%
CCCC[C@@H]1CNC(=O)C(=O)N1CCCCC1CCCCC1 1.63%
COc1ccc(S(=O)(=O)N2CCCCN3[C@H](CO)[C@H](c4ccc(C5=CCCC5)cc4)[C@@H]3C2)cc1 -14.4%
CCOc1cc(C(=O)N(C)CC(=O)Nc2cccc3ccccc23)ccc1OC 5.02%
Cc1cccc(Oc2nccc(C(F)(F)F)c2C(=O)Nc2ccc(F)cc2F)c1 -3.58%
c1ccc(-c2ccc(OCCN3CCOCC3)cc2)cc1 6.91%
C[C@H](NC(=O)[C@@H]1CCCN1C(=O)OC(C)(C)C)c1ccccc1 10.7%
CCC(=O)N1CC[C@@H]2[C@H](CO)Nc3ccc(-c4cccc(C#N)c4)cc3[C@@H]21 22.9%
C[C@H](CO)N1C[C@H](C)[C@H](CN(C)C(=O)CCCN(C)C)OCCCC[C@H](C)Oc2ccc(NC(=O)Cc3ccccc3)cc2C1=O -11.1%
Cc1ccccc1OCCOC(=O)c1cc(S(=O)(=O)N2CCOCC2)ccc1C 19.7%
COc1ccc(Br)cc1CN1CCC(N2CCCC2)CC1 9.97%
N#Cc1cccc(-c2ccc(C3[C@@H]4CN(C(=O)c5cccnc5)C[C@H]3N4)cc2)c1 (some centres undefined) -5.06%
COc1ccc(NC(=O)Nc2cccc3c2O[C@H](CN(C)C(=O)NC2CCCCC2)[C@H](C)CN([C@@H](C)CO)C3=O)cc1 0.224%
O=C(O)[C@H]1[C@H](CO)[C@H]2Cn3c(ccc(/C=C/c4ccccc4)c3=O)[C@H]2N1C(=O)c1cnccn1 8.22%
CCN1[C@H](C(=O)NCCCN(C)C)[C@@H](CO)[C@@H]2Cn3c(ccc(-c4cccc(F)c4)c3=O)[C@@H]21 12%
CCCCN1C[C@H](Cc2ccccc2)[C@@H](CC(=O)NCc2ccc(OC)cc2)C1=O 2.77%
C[C@@H]1CN([C@H](C)CO)C(=O)Cc2cc(NC(=O)CCCCCC(=O)Nc3ccccc3N)ccc2O[C@@H]1CN(C)Cc1ccc(C(F)(F)F)cc1 -7.66% [at 16 µM]
C[C@@H]1CCCCO[C@@H](CN(C)Cc2ccc(C(=O)O)cc2)[C@H](C)CN([C@H](C)CO)C(=O)c2cc(NC(=O)c3ccccc3)ccc2O1 -2.03%
CO[C@@H]1CN(C)C(=O)c2ccc(NC(=O)CC(F)(F)F)cc2OC[C@H](C)N(C(C)=O)C[C@@H]1C 9.73%
Cc1ccc(S(=O)(=O)N2CCCCC2)cc1NC(=O)CCOc1ccccc1 -13.6%
CCC(=O)N1C[C@@H](C)[C@@H](OC)CN(C)C(=O)c2ccc(NC(=O)Nc3ccc(Cl)cc3)cc2OC[C@H]1C 0.873%
O=S(=O)(NCc1ccc(F)cc1)c1ccccc1Br -9.93%
C[C@@H]1CCCCO[C@@H](CN(C)C(=O)C2CCCCC2)[C@H](C)CN([C@H](C)CO)C(=O)c2cc(NC(=O)c3ccncc3)ccc2O1 12.6%
COCCn1nnnc1C(c1cc2cc(C)ccc2[nH]c1=O)N1CCN(C2CCCCC2)CC1 (centres undefined) 9.44%
N#Cc1cccnc1N1CCN(C(=O)c2ccccc2)CC1 -12.5%
CCCNC(=O)C(Cc1ccc(I)cc1)NC(=O)c1ccc(C#N)cc1 (centres undefined) -14.2%
Cc1ccc(S(=O)(=O)N2CCN(C(=O)C(O)c3ccccc3)CC2)cc1 (centres undefined) 13%
N#C[C@H]1[C@@H](c2ccc(C3=CCCCC3)cc2)[C@@H](CO)N1S(=O)(=O)c1cccc(F)c1 25.4%
COCCN(C(=O)COC(=O)CC(C)c1ccccc1)c1c(N)n(Cc2ccccc2)c(=O)[nH]c1=O (centres undefined) -5.14%
CCCCn1c(N)c(N(CC)C(=O)c2cc(C)cc(C)c2)c(=O)[nH]c1=O -24.1%
CC1(C(=O)NS(=O)(=O)Cc2cccc(Cl)c2)CCN1C(=O)c1ccc(C2CCCCC2)cc1 (centres undefined) 14.8%
O=S(=O)(Nc1nc(SCc2ccc(Cl)cc2)n[nH]1)c1ccc(F)cc1 -24.2%
Cc1ccc(N(C)C(=O)N2CCN(S(=O)(=O)c3ccc(C)cc3)CC2)cc1 1.56%
COc1ccc(NC(=O)Nc2ccc3c(c2)C(=O)N([C@@H](C)CO)C[C@H](C)[C@H](CN(C)Cc2ccc(C(=O)O)cc2)OCCCC[C@H](C)O3)cc1 -7.85%
COc1ccc(-c2ccc3c(c2)[C@H]2[C@H](CCN2C(=O)CN2CCOCC2)[C@@H](CO)N3)cc1 21.7%
CSc1cccc(NC(=O)CC2Oc3ccccc3NC2=O)c1 (centres undefined) -0.118%
Cc1ccc(C(=O)OCC(=O)Nc2ccccc2C(F)(F)F)cc1S(=O)(=O)N1CCCCC1 -2.24%
O=C(C1CCOCC1)N1CC[C@@H]2[C@H]1c1cc(-c3cccc(F)c3)ccc1N[C@@H]2CO -4.08%
CC(C)NC(=O)N1C[C@H]2[C@@H](c3ccccc31)[C@@H](CO)N2C(=O)c1ccccn1 6.1%
O=C(Nc1cccc(-n2cnnn2)c1)C1CCCN(C(=O)Cc2cccc(Cl)c2)C1 (centres undefined) 22.5%
Cc1cccc(C)c1OCC(=O)NNC(=O)CCCn1c(=O)oc2ccccc21 -33.7%
CCC(C(=O)Nc1c(C)cccc1C)n1c(-c2ccc(=O)[nH]c2)nc2ccccc21 (centres undefined) 6.71%
O=C(O)CCCCCCCCc1cn(CCc2c[nH]c3ccccc23)nn1 5.69%
Nc1sc(-c2ccccc2)cc1C(=O)NCCN1CCOCC1 9.75%
CN(Cc1nccs1)C(=O)c1ccc(OC2CCN(Cc3ccccn3)CC2)cc1 7.95%
O=C(CN1CCN(c2cccc(C(F)(F)F)c2)CC1)N(C1CCCC1)C1CCS(=O)(=O)C1 (centres undefined) -19.2%
Cc1nc2ccccc2n1C(c1cccnc1)c1nc2ccccc2[nH]1 (centres undefined) 4.03%
COc1ccc(CCN2CC(C(=O)NCCc3ncccc3C)CCC2=O)cc1 (centres undefined) 11.2%
Cc1cccc(C(=O)NC2CCN(CC(=O)Nc3cccc(Cl)c3)CC2)c1 11.9%
CN(C)c1cccc(C(=O)Nc2cc(C(F)(F)F)ccc2-n2cnc3ccccc32)c1 -10.5%
Cc1ccc(C2=NOC(C)(c3nnc(-c4ccncc4)o3)C2)cc1 (centres undefined) 0.835%
COC(=O)c1ccc(NC(=O)C2CC3CCC2C3)cc1 (centres undefined) -5.25%
Cc1c(C(=O)Nc2ccccc2F)sc2ncn(CC(=O)N3CCOCC3)c(=O)c12 -2.2%
CO[C@@H](CN(C)C(=O)c1cc(Cl)cc(Cl)c1)[C@H](C)CN(C(=O)Nc1ccc(F)cc1)[C@@H](C)CO 21.3% [at 10 µM]
CCc1ccc(OCC(O)CN2CCN(c3ccccc3)CC2)cc1 (centres undefined) 11.7%
C[C@H](CO)N1C[C@H](C)[C@@H](CN(C)S(=O)(=O)c2cn(C)cn2)OCCCC[C@H](C)Oc2ccc(NC(=O)Cc3ccccc3)cc2C1=O 9.85%
COc1ccc(-c2nc3ccc(C)cn3c2Cc2cccc(F)c2)cc1OC -19.3%
COc1cc(C(=S)N2CCCCC2)ccc1OCC(=O)Nc1ccc(F)cc1 -0.751%
CCc1c(C(=O)Nc2cc(C(=O)OC)ccc2C)csc1C 31.5%
CCC(C)[C@H]1COCCS(=O)(=O)N1Cc1ccc(Br)cc1 (some centres undefined) 6.82%
COc1ccc(C(C)(NC(C)=O)c2nc(-c3cccc(F)c3)cs2)cc1 (centres undefined) 10%
CN(CC(=O)Nc1cccc(F)c1)C(=O)c1ccccc1CCc1ccccc1 -11.4%
COc1ccc(NC(=O)CN(C)C(=O)CC2CCCC2)cc1 -21.2%
c1ccc(CCNCCCOc2cccc3ccccc23)cc1 -16.8%
O=C(c1cc(-c2ccccc2)n[nH]1)N1CCN(S(=O)(=O)c2ccccc2)CC1 8.57%
CCN(CC(=O)Nc1c(F)cccc1F)C(=O)c1cccc(S(=O)(=O)NCc2ccccc2)c1 -0.434%
N#Cc1ccc(CN2CCN(C(=O)CC(NC(=O)c3ccccc3)c3ccccc3)CC2)cc1 (centres undefined) -5.27%
O=C(NCc1ccccc1F)[C@H]1N[C@H]2c3ccc(-c4ccccc4F)c(=O)n3C[C@H]2[C@@H]1CO 22.1%
O=C(NCc1ccccc1)[C@H]1CCCN1C(=O)[C@@H]1CCCN1C(=O)c1ccc(Cl)cc1Cl -7.08%
O=C(CN1CCN(Cc2ccccc2)CC1)NNC(=O)c1ccccc1 -9.21%
Cc1cccc(N(C)c2cc(C)nc3nc(C)nn23)c1 10.8%
COc1ccc(NC(=O)N[C@@H]2CC[C@@H](CCNS(=O)(=O)c3cccc(Cl)c3)O[C@@H]2CO)cc1 -1.55%

An excerpt from above in order of molecular weight, rising.
CPE protection (higher = active), inactive:
Cc1ccc(C2=NOC(C)(c3nnc(-c4ccncc4)o3)C2)cc1 (centres undefined) 0.835%
O=C(C1CCOCC1)N1CC[C@@H]2[C@H]1c1cc(-c3cccc(F)c3)ccc1N[C@@H]2CO -4.08%
Cc1ccccc1OCCOC(=O)c1cc(S(=O)(=O)N2CCOCC2)ccc1C 19.7%
O=C(CN1CCN(c2cccc(C(F)(F)F)c2)CC1)N(C1CCCC1)C1CCS(=O)(=O)C1 (centres undefined) -19.2%
C[C@@H]1CCCCO[C@@H](CN(C)Cc2ccc(C(=O)O)cc2)[C@H](C)CN([C@H](C)CO)C(=O)c2cc(NC(=O)c3ccccc3)ccc2O1 -2.03%
